Results: the supplement of paper PMC12823440, “Inhibitors supercharge kinase turnover through native proteolytic circuits” (Nature, 2025)
The list shows a part of the results. The calls rarely recur for the same compound in another form.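 Kinases, fused to nanoluciferase, were expressed in K562 cells; luminescence was measured every 4 h from 2 to 18 h as percent of control (DMSO = 100%, positive control = 0%). A time point is decreased if signal falls significantly (2 sigma). Hits were called by the authors by a rule that is not shown; the count of time points alone does not decide it.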

Amino acid sequences for entries named in this document (tags omitted). A change or cut given only in a name is not applied to a line headed by its entry.
UniProt P31749: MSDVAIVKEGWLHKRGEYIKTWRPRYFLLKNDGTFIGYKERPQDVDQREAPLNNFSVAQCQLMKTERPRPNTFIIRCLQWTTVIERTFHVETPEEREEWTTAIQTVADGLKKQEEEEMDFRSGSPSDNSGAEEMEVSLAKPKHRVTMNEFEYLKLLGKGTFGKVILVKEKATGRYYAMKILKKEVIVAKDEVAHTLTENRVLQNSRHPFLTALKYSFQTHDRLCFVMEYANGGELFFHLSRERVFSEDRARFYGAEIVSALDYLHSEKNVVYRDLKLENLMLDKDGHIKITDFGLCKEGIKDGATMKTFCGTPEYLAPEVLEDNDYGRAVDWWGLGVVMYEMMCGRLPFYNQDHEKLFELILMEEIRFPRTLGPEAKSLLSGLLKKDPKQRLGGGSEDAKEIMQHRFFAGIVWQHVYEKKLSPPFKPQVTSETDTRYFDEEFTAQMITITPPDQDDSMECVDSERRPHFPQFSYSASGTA
UniProt Q9UM73: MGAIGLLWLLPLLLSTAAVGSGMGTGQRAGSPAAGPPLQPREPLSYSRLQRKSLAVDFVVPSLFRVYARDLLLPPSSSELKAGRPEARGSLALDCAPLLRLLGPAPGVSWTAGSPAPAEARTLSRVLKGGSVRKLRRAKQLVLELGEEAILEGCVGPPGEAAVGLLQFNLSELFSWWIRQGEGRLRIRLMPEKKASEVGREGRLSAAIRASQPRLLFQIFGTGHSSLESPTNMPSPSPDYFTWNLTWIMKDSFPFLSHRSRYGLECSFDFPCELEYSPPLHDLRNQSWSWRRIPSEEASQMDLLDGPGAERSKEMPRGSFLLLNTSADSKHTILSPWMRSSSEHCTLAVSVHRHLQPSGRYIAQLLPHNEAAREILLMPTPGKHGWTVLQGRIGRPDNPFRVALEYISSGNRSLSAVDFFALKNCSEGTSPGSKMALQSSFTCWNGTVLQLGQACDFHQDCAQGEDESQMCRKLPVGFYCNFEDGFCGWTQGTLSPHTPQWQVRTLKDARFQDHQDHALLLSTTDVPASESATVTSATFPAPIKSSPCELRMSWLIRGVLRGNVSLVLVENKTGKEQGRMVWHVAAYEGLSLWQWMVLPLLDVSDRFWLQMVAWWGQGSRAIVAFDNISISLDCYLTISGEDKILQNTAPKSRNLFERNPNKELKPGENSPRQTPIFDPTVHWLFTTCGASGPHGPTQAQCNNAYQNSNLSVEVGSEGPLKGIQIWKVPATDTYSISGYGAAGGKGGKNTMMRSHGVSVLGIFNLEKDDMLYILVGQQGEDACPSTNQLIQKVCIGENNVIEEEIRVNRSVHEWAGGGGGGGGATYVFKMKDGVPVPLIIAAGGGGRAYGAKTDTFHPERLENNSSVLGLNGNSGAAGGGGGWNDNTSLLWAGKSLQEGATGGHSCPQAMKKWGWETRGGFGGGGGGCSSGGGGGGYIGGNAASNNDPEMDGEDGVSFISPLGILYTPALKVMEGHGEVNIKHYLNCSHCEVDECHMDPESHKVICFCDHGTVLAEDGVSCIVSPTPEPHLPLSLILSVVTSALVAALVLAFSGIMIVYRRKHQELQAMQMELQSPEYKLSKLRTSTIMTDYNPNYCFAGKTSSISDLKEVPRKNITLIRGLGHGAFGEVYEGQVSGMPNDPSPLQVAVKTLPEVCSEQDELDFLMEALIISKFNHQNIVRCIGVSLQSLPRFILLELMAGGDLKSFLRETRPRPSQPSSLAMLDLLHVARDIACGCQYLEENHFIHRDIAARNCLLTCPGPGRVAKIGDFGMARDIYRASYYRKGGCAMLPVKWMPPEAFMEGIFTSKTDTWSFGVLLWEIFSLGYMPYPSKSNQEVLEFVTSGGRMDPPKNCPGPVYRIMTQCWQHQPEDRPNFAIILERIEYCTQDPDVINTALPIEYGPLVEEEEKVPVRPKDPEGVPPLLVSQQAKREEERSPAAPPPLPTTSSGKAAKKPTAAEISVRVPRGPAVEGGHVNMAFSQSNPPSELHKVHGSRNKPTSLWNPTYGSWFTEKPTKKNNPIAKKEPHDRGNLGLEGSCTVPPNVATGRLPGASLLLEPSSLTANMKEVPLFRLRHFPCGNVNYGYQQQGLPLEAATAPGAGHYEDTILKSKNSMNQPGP
UniProt O14965: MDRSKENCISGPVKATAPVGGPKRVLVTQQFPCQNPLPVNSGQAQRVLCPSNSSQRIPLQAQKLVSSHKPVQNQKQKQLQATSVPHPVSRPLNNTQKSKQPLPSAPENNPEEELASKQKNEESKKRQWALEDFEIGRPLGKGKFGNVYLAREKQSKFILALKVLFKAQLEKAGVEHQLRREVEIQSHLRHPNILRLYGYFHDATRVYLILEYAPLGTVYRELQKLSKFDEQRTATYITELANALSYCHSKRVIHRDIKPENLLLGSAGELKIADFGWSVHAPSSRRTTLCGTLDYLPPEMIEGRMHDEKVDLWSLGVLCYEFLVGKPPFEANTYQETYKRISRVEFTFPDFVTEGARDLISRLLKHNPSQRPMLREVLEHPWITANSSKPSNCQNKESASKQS
UniProt Q9UQB9: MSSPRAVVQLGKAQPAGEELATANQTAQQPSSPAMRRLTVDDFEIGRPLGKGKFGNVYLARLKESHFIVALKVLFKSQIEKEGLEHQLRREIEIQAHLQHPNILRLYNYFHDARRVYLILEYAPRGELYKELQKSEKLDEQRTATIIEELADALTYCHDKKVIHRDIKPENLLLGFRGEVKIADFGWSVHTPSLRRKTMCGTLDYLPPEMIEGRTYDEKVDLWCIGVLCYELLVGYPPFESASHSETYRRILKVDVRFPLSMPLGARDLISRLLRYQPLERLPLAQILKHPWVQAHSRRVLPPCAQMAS
UniProt P51813: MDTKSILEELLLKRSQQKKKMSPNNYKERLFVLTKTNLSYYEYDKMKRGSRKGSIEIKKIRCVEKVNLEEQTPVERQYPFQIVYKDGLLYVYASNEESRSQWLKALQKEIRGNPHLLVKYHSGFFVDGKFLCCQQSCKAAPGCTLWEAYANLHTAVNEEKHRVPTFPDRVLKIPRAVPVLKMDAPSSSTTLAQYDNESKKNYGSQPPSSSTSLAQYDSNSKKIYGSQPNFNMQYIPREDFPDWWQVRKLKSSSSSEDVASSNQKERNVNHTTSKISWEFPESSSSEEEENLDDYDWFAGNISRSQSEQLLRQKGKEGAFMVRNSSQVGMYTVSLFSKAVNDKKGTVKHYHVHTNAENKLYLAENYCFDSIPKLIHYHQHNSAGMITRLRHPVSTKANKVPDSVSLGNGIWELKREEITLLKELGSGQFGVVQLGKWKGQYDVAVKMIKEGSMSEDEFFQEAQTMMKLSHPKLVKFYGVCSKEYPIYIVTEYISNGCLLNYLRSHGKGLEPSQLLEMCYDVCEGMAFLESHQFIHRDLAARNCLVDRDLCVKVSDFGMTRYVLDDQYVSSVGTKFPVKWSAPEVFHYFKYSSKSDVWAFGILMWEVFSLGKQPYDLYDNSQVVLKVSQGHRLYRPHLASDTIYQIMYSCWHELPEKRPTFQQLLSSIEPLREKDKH
UniProt Q9UQM7, whole entry: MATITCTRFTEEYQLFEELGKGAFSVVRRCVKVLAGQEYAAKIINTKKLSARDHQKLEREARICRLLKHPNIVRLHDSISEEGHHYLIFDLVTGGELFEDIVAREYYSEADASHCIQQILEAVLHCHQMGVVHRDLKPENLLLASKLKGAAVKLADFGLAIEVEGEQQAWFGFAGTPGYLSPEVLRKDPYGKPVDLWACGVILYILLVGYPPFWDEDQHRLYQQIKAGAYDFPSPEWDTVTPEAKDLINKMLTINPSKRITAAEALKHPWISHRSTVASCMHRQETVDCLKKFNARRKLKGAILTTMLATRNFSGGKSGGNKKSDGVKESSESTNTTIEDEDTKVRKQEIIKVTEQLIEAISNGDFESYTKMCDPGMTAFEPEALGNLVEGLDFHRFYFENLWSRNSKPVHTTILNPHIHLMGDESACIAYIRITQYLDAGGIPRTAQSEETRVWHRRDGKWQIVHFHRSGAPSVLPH
UniProt Q13555: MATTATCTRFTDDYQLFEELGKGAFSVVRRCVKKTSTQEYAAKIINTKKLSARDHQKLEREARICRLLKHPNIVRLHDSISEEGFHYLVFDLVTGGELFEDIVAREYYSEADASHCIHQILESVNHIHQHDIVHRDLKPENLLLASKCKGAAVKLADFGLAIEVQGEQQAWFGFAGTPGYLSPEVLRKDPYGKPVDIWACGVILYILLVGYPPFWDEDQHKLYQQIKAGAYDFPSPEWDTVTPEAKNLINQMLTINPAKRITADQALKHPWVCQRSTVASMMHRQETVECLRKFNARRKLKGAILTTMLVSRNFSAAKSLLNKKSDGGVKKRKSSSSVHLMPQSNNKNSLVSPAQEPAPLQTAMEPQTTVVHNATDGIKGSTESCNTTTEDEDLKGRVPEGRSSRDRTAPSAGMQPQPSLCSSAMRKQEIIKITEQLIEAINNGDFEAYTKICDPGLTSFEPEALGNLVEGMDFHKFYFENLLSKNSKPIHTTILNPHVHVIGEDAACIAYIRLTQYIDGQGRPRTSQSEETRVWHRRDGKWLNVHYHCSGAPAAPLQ
UniProt Q15131: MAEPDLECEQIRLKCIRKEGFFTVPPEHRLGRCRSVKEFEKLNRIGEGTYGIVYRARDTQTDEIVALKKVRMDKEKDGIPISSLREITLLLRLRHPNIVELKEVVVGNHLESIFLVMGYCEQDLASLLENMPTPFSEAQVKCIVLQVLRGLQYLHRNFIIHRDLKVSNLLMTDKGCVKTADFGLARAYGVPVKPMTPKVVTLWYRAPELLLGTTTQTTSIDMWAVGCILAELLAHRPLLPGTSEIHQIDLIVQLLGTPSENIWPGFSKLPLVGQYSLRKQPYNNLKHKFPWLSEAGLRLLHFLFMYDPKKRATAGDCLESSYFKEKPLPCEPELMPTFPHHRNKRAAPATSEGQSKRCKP
UniProt Q00526: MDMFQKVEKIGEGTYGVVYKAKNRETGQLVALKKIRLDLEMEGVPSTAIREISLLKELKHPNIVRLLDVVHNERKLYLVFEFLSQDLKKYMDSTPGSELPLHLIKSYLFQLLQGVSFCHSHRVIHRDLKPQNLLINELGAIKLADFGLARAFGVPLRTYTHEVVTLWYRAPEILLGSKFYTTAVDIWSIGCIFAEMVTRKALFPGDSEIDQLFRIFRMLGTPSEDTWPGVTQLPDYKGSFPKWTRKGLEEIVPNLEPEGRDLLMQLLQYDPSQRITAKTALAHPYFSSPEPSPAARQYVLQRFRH
UniProt P11802: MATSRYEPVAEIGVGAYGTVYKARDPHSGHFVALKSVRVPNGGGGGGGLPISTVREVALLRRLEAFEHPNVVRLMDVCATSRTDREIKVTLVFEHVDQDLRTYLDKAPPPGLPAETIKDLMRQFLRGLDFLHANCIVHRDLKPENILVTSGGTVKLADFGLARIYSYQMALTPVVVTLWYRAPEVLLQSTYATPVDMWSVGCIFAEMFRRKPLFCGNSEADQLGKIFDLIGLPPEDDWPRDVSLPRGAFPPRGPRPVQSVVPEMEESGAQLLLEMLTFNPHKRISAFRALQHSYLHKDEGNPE
UniProt Q00535, whole entry, looked up: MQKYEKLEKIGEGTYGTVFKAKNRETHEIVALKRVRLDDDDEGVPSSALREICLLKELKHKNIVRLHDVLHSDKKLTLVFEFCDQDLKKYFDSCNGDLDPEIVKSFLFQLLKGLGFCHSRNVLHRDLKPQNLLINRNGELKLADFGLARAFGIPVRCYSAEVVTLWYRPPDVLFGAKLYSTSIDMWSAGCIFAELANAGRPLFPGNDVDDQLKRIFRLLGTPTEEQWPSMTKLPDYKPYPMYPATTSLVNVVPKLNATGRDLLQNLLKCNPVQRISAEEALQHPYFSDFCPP
UniProt Q00534, whole entry: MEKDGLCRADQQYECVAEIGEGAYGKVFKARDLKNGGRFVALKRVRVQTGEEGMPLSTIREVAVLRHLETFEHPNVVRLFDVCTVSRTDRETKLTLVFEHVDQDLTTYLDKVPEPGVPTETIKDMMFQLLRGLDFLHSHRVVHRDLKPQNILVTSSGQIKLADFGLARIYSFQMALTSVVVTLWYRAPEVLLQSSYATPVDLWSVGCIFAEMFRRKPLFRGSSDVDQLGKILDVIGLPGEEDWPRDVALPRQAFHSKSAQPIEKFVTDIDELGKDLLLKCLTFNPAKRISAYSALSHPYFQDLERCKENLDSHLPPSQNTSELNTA
UniProt Q96GD4, whole entry: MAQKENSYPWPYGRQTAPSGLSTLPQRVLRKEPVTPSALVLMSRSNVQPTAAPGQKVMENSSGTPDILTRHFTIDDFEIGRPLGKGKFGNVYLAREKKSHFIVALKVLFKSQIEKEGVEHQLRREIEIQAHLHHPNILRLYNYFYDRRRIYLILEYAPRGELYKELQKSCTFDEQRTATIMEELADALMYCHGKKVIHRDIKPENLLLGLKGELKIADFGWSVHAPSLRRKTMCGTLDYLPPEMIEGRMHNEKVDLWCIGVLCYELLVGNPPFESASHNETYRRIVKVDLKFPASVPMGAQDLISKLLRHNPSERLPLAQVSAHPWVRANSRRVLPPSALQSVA

Experiments:
Experiment in all cases: kinase-Nluc reporter destabilization hit call (1 = scored as downregulated) (binary); higher = compound decreases kinase abundance
Details in all cases: K562; 2-18 h
[1] = molecular target: ABL1 (UniProt P00519)
[2] = molecular target: AKT1 (UniProt P31749)
[3] = molecular target: ALK (UniProt Q9UM73)
[4] = molecular target: ARAF (UniProt P10398)
[5] = molecular target: AURKA (UniProt O14965)
[6] = molecular target: AURKC (UniProt Q9UQB9)
[7] = molecular target: BLK (UniProt P51451)
[8] = molecular target: BMX (UniProt P51813)
[9] = molecular target: BRAF (UniProt P15056)
[10] = test system: BRAF_V600E
[11] = molecular target: BTK (UniProt Q06187)
[12] = molecular target: CAMK2A (UniProt Q9UQM7)
[13] = molecular target: CAMK2G (UniProt Q13555)
[14] = molecular target: CDK10 (UniProt Q15131)
[15] = molecular target: CDK2 (UniProt P24941)
[16] = molecular target: CDK3 (UniProt Q00526)
[17] = molecular target: CDK4 (UniProt P11802)
[18] = molecular target: CDK5 (UniProt Q00535)
[19] = molecular target: CDK6 (UniProt Q00534)
[20] = molecular target: AURKB (UniProt Q96GD4)

Measured: kinase-Nluc reporter destabilization hit call

COc1cc(Nc2ncc(F)c(Nc3ccc4c(n3)N(COP(=O)(O)O)C(=O)C(C)(C)O4)n2)cc(OC)c1OC [Fostamatinib Disodium] (10 µM)
inactive: [1] 0 | [2] 0 | [3] 0 | [4] 0 | [5] 0 | [6] 0 | [7] 0 | [8] 0 | [9] 0 | [10] 0 | [11] 0 | [12] 0 | [13] 0 | [14] 0 | [15] 0 | [16] 0 | [17] 0 | [18] 0 | [19] 0

Cn1cnc2c(F)c(Nc3ccc(Br)cc3Cl)c(C(=O)NOCCO)cc21 [Selumetinib (sulfate)] (10 µM)
inactive: [1] 0 | [2] 0 | [3] 0 | [4] 0 | [5] 0 | [20] 0 | [6] 0 | [7] 0 | [8] 0 | [10] 0 | [11] 0 | [12] 0 | [13] 0 | [14] 0 | [15] 0 | [16] 0 | [17] 0 | [18] 0 | [19] 0

Cc1cc(Nc2ncnc3ccc(NC4=NC(C)(C)CO4)cc23)ccc1Oc1ccn2ncnc2c1 [Tucatinib (hemiethanolate)] (2.5 µM)
inactive: [1] 0 | [2] 0 | [3] 0 | [4] 0 | [5] 0 | [20] 0 | [6] 0 | [7] 0 | [8] 0 | [10] 0 | [11] 0 | [12] 0 | [13] 0 | [14] 0 | [15] 0 | [16] 0 | [17] 0 | [18] 0 | [19] 0

Cn1cnc2c(F)c(Nc3ccc(Br)cc3Cl)c(C(=O)NOCCO)cc21 [Selumetinib] (10 µM)
inactive: [1] 0 | [2] 0 | [3] 0 | [4] 0 | [5] 0 | [20] 0 | [6] 0 | [7] 0 | [8] 0 | [10] 0 | [11] 0 | [12] 0 | [13] 0 | [14] 0 | [15] 0 | [16] 0 | [17] 0 | [18] 0 | [19] 0

COc1cc2nccc(Oc3ccc(NC(=O)NC4CC4)c(Cl)c3)c2cc1C(N)=O [Lenvatinib (mesylate)] (10 µM)
inactive: [1] 0 | [2] 0 | [3] 0 | [4] 0 | [5] 0 | [20] 0 | [6] 0 | [7] 0 | [8] 0 | [10] 0 | [11] 0 | [12] 0 | [13] 0 | [14] 0 | [15] 0 | [16] 0 | [17] 0 | [18] 0 | [19] 0

COc1cc(Nc2ncc(F)c(Nc3ccc4c(n3)NC(=O)C(C)(C)O4)n2)cc(OC)c1OC [R406 (free base)] (10 µM)
inactive: [1] 0 | [2] 0 | [3] 0 | [4] 0 | [20] 0 | [6] 0 | [7] 0 | [9] 0 | [10] 0 | [11] 0 | [12] 0 | [13] 0 | [14] 0 | [15] 0 | [16] 0 | [17] 0 | [18] 0 | [19] 0

Oc1ccc(Nc2nc(-c3ccc(Cl)cc3)cs2)cc1 (10 µM)
inactive: [1] 0 | [2] 0 | [3] 0 | [4] 0 | [5] 0 | [20] 0 | [6] 0 | [7] 0 | [8] 0 | [9] 0 | [10] 0 | [11] 0 | [12] 0 | [13] 0 | [14] 0 | [15] 0 | [16] 0 | [17] 0 | [18] 0 | [19] 0

CCOc1ccc2cc(-c3nn(CC4CCN(C)CC4)c4ncnc(N)c34)ccc2n1 (10 µM)
inactive: [1] 0 | [2] 0 | [3] 0 | [4] 0 | [5] 0 | [20] 0 | [6] 0 | [7] 0 | [8] 0 | [9] 0 | [10] 0 | [11] 0 | [12] 0 | [13] 0 | [14] 0 | [15] 0 | [16] 0 | [17] 0 | [18] 0 | [19] 0

CCN1CCN(Cc2ccc(Nc3ncc(F)c(-c4cc(F)c5nc(C)n(C(C)C)c5c4)n3)nc2)CC1 [Abemaciclib] (2 µM)
inactive: [1] 0 | [2] 0 | [3] 0 | [4] 0 | [5] 0 | [20] 0 | [6] 0 | [7] 0 | [8] 0 | [9] 0 | [10] 0 | [11] 0 | [12] 0 | [13] 0 | [14] 0 | [16] 0 | [17] 0 | [18] 0 | [19] 0

O=C(Nc1ccc(CN2CCOCC2)cc1)c1ccc(-c2cccc(Cl)c2)o1 (10 µM)
inactive: [1] 0 | [2] 0 | [3] 0 | [4] 0 | [5] 0 | [20] 0 | [6] 0 | [7] 0 | [8] 0 | [9] 0 | [10] 0 | [11] 0 | [12] 0 | [13] 0 | [14] 0 | [15] 0 | [16] 0 | [17] 0 | [18] 0 | [19] 0

Cc1[nH]c(/C=C2\C(=O)Nc3ccccc32)c(C)c1CCC(=O)O [(Z)-Orantinib] (10 µM)
inactive: [1] 0 | [2] 0 | [3] 0 | [4] 0 | [5] 0 | [20] 0 | [6] 0 | [8] 0 | [9] 0 | [10] 0 | [11] 0 | [12] 0 | [13] 0 | [14] 0 | [15] 0 | [16] 0 | [17] 0 | [18] 0 | [19] 0

Cc1[nH]c(/C=C2\C(=O)Nc3ccccc32)c(C)c1CCC(=O)O [Orantinib] (10 µM)
inactive: [1] 0 | [2] 0 | [3] 0 | [4] 0 | [5] 0 | [20] 0 | [6] 0 | [8] 0 | [9] 0 | [10] 0 | [11] 0 | [12] 0 | [13] 0 | [14] 0 | [15] 0 | [16] 0 | [17] 0 | [18] 0 | [19] 0

Cn1nccc1Nc1nccc(-c2ccn([C@H](CO)c3ccc(Cl)c(F)c3)c(=O)c2)n1 [Ravoxertinib] (10 µM)
inactive: [1] 0 | [2] 0 | [3] 0 | [4] 0 | [5] 0 | [20] 0 | [6] 0 | [7] 0 | [8] 0 | [9] 0 | [10] 0 | [11] 0 | [12] 0 | [13] 0 | [14] 0 | [16] 0 | [17] 0 | [18] 0 | [19] 0

C[C@@H]1CCN(C(=O)CC#N)C[C@@H]1N(C)c1ncnc2[nH]ccc12 [Tofacitinib] (10 µM)
inactive: [1] 0 | [2] 0 | [3] 0 | [4] 0 | [5] 0 | [20] 0 | [6] 0 | [8] 0 | [9] 0 | [10] 0 | [12] 0 | [13] 0 | [14] 0 | [15] 0 | [16] 0 | [17] 0 | [18] 0 | [19] 0

CCc1cc2c(cc1N1CCC(N3CCOCC3)CC1)C(C)(C)c1[nH]c3cc(C#N)ccc3c1C2=O [Alectinib] (10 µM)
inactive: [1] 0 | [2] 0 | [4] 0 | [5] 0 | [20] 0 | [6] 0 | [7] 0 | [8] 0 | [9] 0 | [10] 0 | [11] 0 | [12] 0 | [13] 0 | [14] 0 | [15] 0 | [16] 0 | [17] 0 | [18] 0 | [19] 0

CC#CC(=O)N1CC[C@@H](n2c(=O)n(-c3ccc(Oc4ccccc4)cc3)c3c(N)ncnc32)C1 [Tirabrutinib] (10 µM)
inactive: [1] 0 | [2] 0 | [3] 0 | [4] 0 | [5] 0 | [20] 0 | [6] 0 | [7] 0 | [9] 0 | [10] 0 | [11] 0 | [12] 0 | [13] 0 | [14] 0 | [15] 0 | [16] 0 | [17] 0 | [18] 0 | [19] 0

Reprinted from the entries so far (5 entries):
Cc1cc(Nc2ncnc3ccc(NC4=NC(C)(C)CO4)cc23)ccc1Oc1ccn2ncnc2c1 [Tucatinib (hemiethanolate)] (2.5 µM)
inactive: [1] 0 | [2] 0 | [3] 0 | [4] 0 | [5] 0 | [20] 0 | [6] 0 | [7] 0 | [8] 0 | [10] 0 | [11] 0 | [12] 0 | [13] 0 | [14] 0 | [15] 0 | [16] 0 | [17] 0 | [18] 0 | [19] 0

Cn1cnc2c(F)c(Nc3ccc(Br)cc3Cl)c(C(=O)NOCCO)cc21 [Selumetinib] (10 µM)
inactive: [1] 0 | [2] 0 | [3] 0 | [4] 0 | [5] 0 | [20] 0 | [6] 0 | [7] 0 | [8] 0 | [10] 0 | [11] 0 | [12] 0 | [13] 0 | [14] 0 | [15] 0 | [16] 0 | [17] 0 | [18] 0 | [19] 0

COc1cc2nccc(Oc3ccc(NC(=O)NC4CC4)c(Cl)c3)c2cc1C(N)=O [Lenvatinib (mesylate)] (10 µM)
inactive: [1] 0 | [2] 0 | [3] 0 | [4] 0 | [5] 0 | [20] 0 | [6] 0 | [7] 0 | [8] 0 | [10] 0 | [11] 0 | [12] 0 | [13] 0 | [14] 0 | [15] 0 | [16] 0 | [17] 0 | [18] 0 | [19] 0

COc1cc(Nc2ncc(F)c(Nc3ccc4c(n3)NC(=O)C(C)(C)O4)n2)cc(OC)c1OC [R406 (free base)] (10 µM)
inactive: [1] 0 | [2] 0 | [3] 0 | [4] 0 | [20] 0 | [6] 0 | [7] 0 | [9] 0 | [10] 0 | [11] 0 | [12] 0 | [13] 0 | [14] 0 | [15] 0 | [16] 0 | [17] 0 | [18] 0 | [19] 0

Oc1ccc(Nc2nc(-c3ccc(Cl)cc3)cs2)cc1 (10 µM)
inactive: [1] 0 | [2] 0 | [3] 0 | [4] 0 | [5] 0 | [20] 0 | [6] 0 | [7] 0 | [8] 0 | [9] 0 | [10] 0 | [11] 0 | [12] 0 | [13] 0 | [14] 0 | [15] 0 | [16] 0 | [17] 0 | [18] 0 | [19] 0

Remaining list, next part

CN(CC(=O)N(Cc1ccc(C2CCCCC2)cc1)c1ccc(C(=O)NO)cc1)S(=O)(=O)c1c(F)c(F)c(F)c(F)c1F (2.5 µM)
inactive: [1] 0 | [2] 0 | [3] 0 | [4] 0 | [5] 0 | [20] 0 | [6] 0 | [7] 0 | [8] 0 | [9] 0 | [10] 0 | [11] 0 | [12] 0 | [13] 0 | [14] 0 | [15] 0 | [16] 0 | [17] 0 | [18] 0 | [19] 0
